This is an account of results in patent US20230220021A1 (University of Copenhagen, priority 2020, published 2023).

For part of these data: One purity is given for all peptides; the source may state it once.

The nature of series [1]: general procedure: Fmoc solid-phase peptide synthesis; Rink Amide-ChemMatrix resin (cyclic peptides); preloaded Fmoc-Gly or Fmoc-Val-Wang resin, 100-200 mesh (linear peptides); DIC / Oxyma Pure. As to conditions: whole synthesis.
The subject of series [2] is mouse (mus musculus) brain lysate. As to the kind of experiment: Affinity-based pull down from brain lysate with LC-MS/MS. As to conditions: peptide on Dynabeads M-270 Amine; for proteins enriched in pull down: cytosolic fraction; for enrichment of PDZ-containing proteins in pull down: membranal fraction.

Cyclo-(THLeTTFTGDGTPKTIRVTQpG(Qα)): in series [1], the “final purity (method not given)” value is recorded as >95%.
Regarding Cyclo-(THLETTFGdGEPKTIRVTQpG(Qα)), the “final purity (method not given)” value in series [1] is >95%.
On the same count and under the same terms, the result for Cyclo-(THLETtFTGDGTPKTIRVTQpG(Qα)) reads >95%; that for Cyclo-(THLETTFTGDGTPKTIrVTQpG(Qα)), >95%; that for Cyclo-(THLETTFTGDGTpKTIRVTQpG(Qα)), >95%.
For `CC[C@H](C)[C@@H]1NC(=O)[C@H]([C@@H](C)O)NC(=O)[C@H](CCCCN)NC(=O)[C@@H]2CCCN2C(=O)[C@H]([C@@H](C)O)NC(=O)CNC(=O)[C@H](CC(=O)O)NC(=O)CNC(=O)[C@H]([C@@H](C)O)NC(=O)[C@H](Cc2ccccc2)NC(=O)[C@H]([C@@H](C)O)NC(=O)[C@H]([C@@H](C)O)NC(=O)[C@H](CCC(=O)O)NC(=O)[C@H](CC(C)C)NC(=O)[C@H](Cc2c[nH]cn2)NC(=O)[C@H]([C@@H](C)O)NC(=O)[C@H](CCC(N)=O)NC(=O)CNC(=O)[C@H]2CCCN2C(=O)[C@H](CCC(N)=O)NC(=O)[C@H]([C@@H](C)O)NC(=O)[C@H](C(C)C)NC(=O)[C@H](CCCNC(=N)N)NC1=O` [SEQ ID NO: 12], in series [2], the “proteins enriched in pull down” value is listed as “significantly enriched PSD-95” and the “enrichment of PDZ-containing proteins in pull down” value was “not significantly enriched”.
In the case of Cyclo-(THLETTFWGDGEPKTIRVTQPG(Qα)), in series [1], the “final purity (method not given)” value is on record as >95%.
The same measure, in the same setting: the figure for Cyclo-(ThLETTFTGDGTPKTIRVTQpG(Qα)) is >95%; for Cyclo-(THLETTFTGdGTPKTIRVTQpG(Qα)) it is >95%.
Still for that read-out and setting: the result for Cyclo-(THLETTFTGDGtPKTIRVTQpG(Qα)) reads >95%.
On the same count and under the same terms, the figure for Cyclo-(THLETTFWGDAEPKTIRVTQpG(Qα)) is >95%.
Turning to Cyclo-(THLETTFWGDPTPKTIRVTQpG(QG)), in series [1], the “final purity (method not given)” value is recorded as >95%.
On to Cyclo-(THLETTFTGDGTPKTIRVtQpG(Qα)), for which the “final purity (method not given)” value in series [1] is on record as >95%.
Turning to Cyclo-(THLETTFWGDGDPKTIRVTQpG(QG)), the “final purity (method not given)” value in series [1] is recorded as >95%.
“Cyclo-(TH(1-Me)LETTFTGDGTPKTIRVTQpG(Qα))”: the “final purity (method not given)” value in series [1] is >95%.
On the same count and under the same terms, the figure for Cyclo-(THLETTFWGdGEPKTIRVTQPG(Qα)) is >95%.
Regarding Cyclo-(THLETTFTGDGTPkTIRVTQpG(Qα)), the “final purity (method not given)” value in series [1] is on record as >95%.
As to Cyclo-(THLETTFtGDGTPKTIRVTQpG(Qα)), the “final purity (method not given)” value in series [1] was >95%.
With Cyclo-(THLETTfTGDGTPKTIRVTQpG(Qα)), the “final purity (method not given)” value in series [1] is listed as >95%.
Still for that read-out and setting: the result for Cyclo-(THLETTFGDGEPKTIRVTQpG(Qα)) reads >95%.
On the same count and under the same terms, the result for Cyclo-(THLEtTFTGDGTPKTIRVTQpG(Qα)) reads >95%.
As to “KLSSIESDV [SEQ ID NO: 435, reference compound]”, in series [2], the “proteins enriched in pull down” value was “enriches significantly the multi-PDZ domain proteins membrane-associated guanylate kinase inverted MAGUK (Magi1 and Magi2)”; the “enrichment of PDZ-containing proteins in pull down” value is reported as “not significantly enriched”.
Turning to Cyclo-(THLETTFTGDGTPKTIRvTQpG(Qα)), the “final purity (method not given)” value in series [1] was >95%.
On to Cyclo-(THLETTFTGDGTPKtIRVTQpG(Qα)), for which the “final purity (method not given)” value in series [1] is listed as >95%.
Same read-out and setting: the result for “Cyclo-(TH(3-Me)LETTFTGDGTPKTIRVTQpG(Qα))” reads >95%; that for Cyclo-(THLETTFTGDGTPKTIRVTqpG(Qα)), >95%.
The same measure, in the same setting: the figure for Cyclo-(THLETTFWGDPEPKTIRVTQpG(Qα)) is >95%; for Cyclo-(THIETTFTGDGTPKTIRVQpG(Qα)) it is >95%; for Cyclo-(tHLETTFTGDGTPKTIRVTQpG(Qα)) it is >95%.
On the same count and under the same terms, the figure for Cyclo-(THLETTFTGDPEPKTIRVTQpG(Qα)) is >95%; for Cyclo-(THLETTFTGDGTPKTiRVTQpG(Qα)) it is >95%.
